Literature values in patent US8178579B2, “Dioxanes and uses thereof” (President and Fellows of Harvard College, priority 2001, dated 2012).

Test system: α-tubulin deacetylation
Conditions: cited from earlier work

Structure (SMILES): O=C(CCCCCCC(=O)Nc1ccccc1)NO [suberoylanilide hydroxamic acid]
- inhibition of HDAC6, from Koeller et al.: also inhibit HDAC6
